Data as given in PubChem BioAssay AID504786 (Drosophila RNAi Screening Center, 2011)
In all, the deposit lists about 21,000 reagents; this is a random part of those with a known target gene and a result. 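Primary screen; positive scores mean lost reporter signal, so the sign may be inverted from the usual convention.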 Names joined by + are all predicted targets of the reagent. No sequences are given here.

Aim: 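Knock-downs reducing HIF reporter induction by the iron chelator DFO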 (primary screen)
System: Drosophila S2 cells with a stable HIF luciferase reporter
Knock-down reagent: long dsRNA against Drosophila genes, about 0.2 µg dsRNA per well of a 384-well plate
Duration: three days of knock-down, then 20 h of DFO before reading
Treatment: desferrioxamine (DFO) at 100 µM, an iron chelator that mimics hypoxia, for 20 h
Detection: 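Firefly luciferase driven by the mouse ldh-a hypoxia-response element, measured after 20 h of 100 µM DFO; z-scores per plate, higher means more signal lost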
Scale: z-score: higher = stronger loss of HIF reporter signal

gene | dsRNA | z-score, replicate 1 | z-score, replicate 2 | z-score, replicate 3 | z-score, replicate 4
eIF1 (GeneID 38398) | DRSC08520 | -0.2 | -0.7 | – | –
Vajk1 (GeneID 34809) | DRSC01882 | -0.2 | -0.4 | – | –
CG31710 (GeneID 318907) | DRSC01089 | 0.1 | -0.4 | -0.1 | -0.2
CG3483 (GeneID 37900) | DRSC04371 | -0.2 | -0.6 | – | –
Spn43Aa (GeneID 45041) | DRSC06117 | -0.3 | 0.1 | – | –
CG34348 (GeneID 32072) | DRSC19425 | -0.2 | -0.7 | – | –
CG34348 (GeneID 32072) | DRSC19644 | -0.3 | -0.5 | – | –
CG5445 (GeneID 32722) | DRSC19943 | 0.1 | 0.9 | – | –
Aldh (GeneID 34256) | DRSC02717 | -0.2 | -0.4 | – | –
Rs1 (GeneID 44087) | DRSC05945 | -0.3 | 0.7 | – | –
CG8778 (GeneID 36392) | DRSC07264 | -0.3 | -0.9 | – | –
CG11041 (GeneID 37278) | DRSC06025 | -0.2 | -0.4 | – | –
CG31195 (GeneID 46155) | DRSC13440 | -0.4 | -0.2 | – | –
CG12780 (GeneID 35834) | DRSC06169 | -0.3 | -0.3 | – | –
GckIII (GeneID 42064) | DRSC15729 | 0.1 | 0.8 | – | –
CG13427 (GeneID 37316) | DRSC06389 | 0 | 0.2 | – | –
CG1314 (GeneID 33066) | DRSC20495 | -0.4 | -0.4 | – | –
CG6431 (GeneID 34476) | DRSC02956 | -0.4 | -0.3 | – | –
CG4198 (GeneID 31445) | DRSC18354 | -0.3 | -0.4 | – | –
CG13630 (GeneID 42943) | DRSC14631 | -0.2 | -0.1 | – | –
SkpA (GeneID 31016) | DRSC18833 | -0.4 | -0.6 | – | –
ome (GeneID 44297) | DRSC09322 | -0.5 | -0.3 | – | –
ome (GeneID 44297) | DRSC10282 | 0 | 0.1 | – | –
ome (GeneID 44297) | DRSC11380 | -0.2 | -0.5 | – | –
path (GeneID 39106) | DRSC10361 | 0 | 0.4 | – | –
CG12523 (GeneID 39216) | DRSC09895 | -0.4 | -0.5 | 0.5 | -0.2
CG6660 (GeneID 42708) | DRSC16087 | -0.2 | -0.6 | – | –
CG13995 (GeneID 33851) | DRSC00907 | 0.4 | -0.8 | -0.2 | -0.4
CG13995 (GeneID 33851) | DRSC02327 | -0.3 | -0.6 | – | –
Prosalpha3 (GeneID 37378) | DRSC04644 | 3.3 | 4 | – | –
ERp60 (GeneID 36270) | DRSC07309 | -0.1 | -0.9 | – | –
poe (GeneID 46243) | DRSC03593 | 0.2 | 0.4 | – | –
CG1986 (GeneID 31925) | DRSC18197 | -0.2 | 0.2 | – | –
LeuRS-m (GeneID 38581) | DRSC08595 | -0.4 | -0.1 | – | –
Lsd-1 (GeneID 42810) | DRSC14236 | -0.1 | 0 | – | –
Sse (GeneID 38640) | DRSC09746 | -0.1 | 0.5 | – | –
Tim17a1 (GeneID 41500) | DRSC14184 | -0.4 | -0.8 | – | –

Next part, starting with the last 6 of the part before.
gene | dsRNA | z-score, replicate 1 | z-score, replicate 2 | z-score, replicate 3 | z-score, replicate 4
poe (GeneID 46243) | DRSC03593 | 0.2 | 0.4 | – | –
CG1986 (GeneID 31925) | DRSC18197 | -0.2 | 0.2 | – | –
LeuRS-m (GeneID 38581) | DRSC08595 | -0.4 | -0.1 | – | –
Lsd-1 (GeneID 42810) | DRSC14236 | -0.1 | 0 | – | –
Sse (GeneID 38640) | DRSC09746 | -0.1 | 0.5 | – | –
Tim17a1 (GeneID 41500) | DRSC14184 | -0.4 | -0.8 | – | –
ckn (GeneID 36673) | DRSC06149 | -0.2 | -0.3 | – | –
TfIIEbeta (GeneID 38527) | DRSC08701 | -0.4 | -0.2 | – | –
CG13168 (GeneID 36327) | DRSC06295 | -0.1 | -0.7 | – | –
CtsK2 (GeneID 36973) | DRSC06897 | -0.3 | -0.6 | – | –
CG8668 (GeneID 34107) | DRSC03101 | -0.2 | -0.2 | – | –
Past1 (GeneID 41569) | DRSC16784 | -0.4 | -0.4 | – | –
Yp1 (GeneID 31939) | DRSC18731 | -0.2 | -0.8 | – | –
CG18622 (GeneID 42044) | DRSC15360 | -0.5 | -0.7 | – | –
synr (GeneID 33702) | DRSC02369 | -0.3 | -0.4 | – | –
Not1 (GeneID 5740252) | DRSC06787 | 1.1 | -0.6 | – | –
Not1 (GeneID 5740252) | DRSC06794 | -0.3 | -0.5 | – | –
CG8138 (GeneID 41619) | DRSC16386 | -0.3 | -0.3 | – | –
Sry-delta (GeneID 43572) | DRSC16869 | -0.1 | -0.6 | – | –
CG13502 (GeneID 37518) | DRSC04147 | -0.3 | -0.3 | – | –
GstD6 (GeneID 48339) | DRSC16687 | -0.3 | -0.5 | – | –
pck (GeneID 31101) | DRSC18565 | -0.3 | -0.1 | – | –
RpL24 (GeneID 34754) | DRSC03185 | 0.2 | 5.1 | – | –
Cpr62Bb (GeneID 38240) | DRSC08404 | -0.4 | -0.5 | – | –
CG30479 (GeneID 36631) | DRSC06735 | -0.2 | -0.2 | – | –
CG7991 (GeneID 38214) | DRSC08609 | -0.3 | -0.4 | – | –
eys (GeneID 3771890) | DRSC00113 | -0.3 | 0.1 | – | –
eys (GeneID 3771890) | DRSC00402 | 0.3 | 0.3 | – | –
eys (GeneID 3771890) | DRSC00403 | 0 | 0.1 | – | –
eys (GeneID 3771890) | DRSC00695 | -0.2 | -0.2 | – | –
Mppe (GeneID 36285) | DRSC07296 | -0.4 | -0.7 | – | –
Sym (GeneID 40709) | DRSC12301 | 2.4 | 2.8 | – | –
CG10237 (GeneID 35222) | DRSC02029 | -0.2 | -0.1 | – | –
ArgRS-m (GeneID 40929) | DRSC14186 | 0.3 | -0.1 | -0.4 | 0.1
CG14024 (GeneID 33760) | DRSC00868 | 0.5 | 0.5 | – | –
CG14024 (GeneID 33760) | DRSC02354 | -0.2 | -0.3 | – | –
dUTPase (GeneID 34529) | DRSC01998 | -0.3 | -0.8 | – | –
ranshi (GeneID 41041) | DRSC16564 | -0.3 | -0.4 | – | –
CG34290 (GeneID 5740609) | DRSC13660 | -0.3 | -0.2 | – | –
CG13070 (GeneID 39782) | DRSC09953 | -0.3 | 0.7 | – | –
CG14357 (GeneID 41716) | DRSC14820 | -0.3 | 1.3 | – | –
LManI (GeneID 34436) | DRSC02838 | -0.3 | -0.2 | – | –
Zpr1 (GeneID 31851) | DRSC18432 | -0.3 | -0.3 | – | –
Sox15 (GeneID 36575) | DRSC07555 | 0.9 | 1.3 | – | –
CG9649 (GeneID 41727) | DRSC16534 | -0.2 | -0.4 | – | –
CG1213 (GeneID 40728) | DRSC12191 | 0.3 | -0.2 | – | –
mtd (GeneID 45467) | DRSC12131 | -0.4 | -0.6 | – | –
mtd (GeneID 45467) | DRSC12380 | -0.4 | -0.5 | – | –
mtd (GeneID 45467) | DRSC12381 | -0.4 | 1 | – | –
cue (GeneID 38174) | DRSC08248 | -0.3 | -0.2 | – | –
Sh (GeneID 32780) | DRSC19214 | -0.2 | -0.4 | – | –
Sh (GeneID 32780) | DRSC19220 | -0.4 | -0.2 | – | –
Sh (GeneID 32780) | DRSC19785 | 0.3 | 0.1 | – | –
Sh (GeneID 32780) | DRSC20055 | -0.4 | -0.5 | – | –
Nup98-96 (GeneID 42816) | DRSC14209 | 2 | 3.6 | – | –
Nup98-96 (GeneID 42816) | DRSC14210 | 4.6 | 4.1 | – | –
CNMa (GeneID 38242) | DRSC08405 | 0 | -0.2 | – | –
Paip2 (GeneID 41591) | DRSC14504 | -0.4 | -0.6 | – | –
Ttc19 (GeneID 35172) | DRSC02474 | -0.3 | -0.9 | – | –
gdl-ORF39 + gdl | DRSC11350 | -0.3 | 0.1 | – | –
MsrA (GeneID 39675) | DRSC11159 | -0.4 | -0.6 | – | –
CycY (GeneID 34593) | DRSC02420 | -0.4 | -0.2 | – | –
Taf6 (GeneID 40134) | DRSC11299 | 0.7 | 1 | – | –
Slbp (GeneID 43448) | DRSC16863 | -0.2 | 0.6 | – | –
CG34175 (GeneID 5740264) | DRSC00424 | 0.1 | 0 | – | –
MFS1 (GeneID 246519) | DRSC04115 | -0.2 | 0 | – | –
Ance-2 (GeneID 34806) | DRSC02539 | -0.3 | -0.3 | – | –
CG13426 (GeneID 37312) | DRSC06388 | -0.2 | 0.1 | – | –
Prosbeta5R1 (GeneID 37690) | DRSC04581 | 0.9 | 0.3 | – | –
pic (GeneID 41611) | DRSC16639 | 0.9 | 1.5 | – | –
ReepB (GeneID 36569) | DRSC07150 | -0.4 | -0.7 | – | –
pll (GeneID 43283) | DRSC17026 | -0.3 | -0.4 | – | –
CG13607 (GeneID 42859) | DRSC14610 | -0.2 | 0.1 | – | –
Atg10 + CG18853 + CG12822 | DRSC20757 | -0.8 | -0.4 | – | –
Exo84 (GeneID 43163) | DRSC15965 | -0.4 | 0.4 | – | –
